Patent US20020177231A1
Where a chain is given by its changes, count along the chain named. No constants are given. Whether binding was seen depends on the method and setting. Binding seen in cells or lysates may run through a third protein. Some binding calls cover weakened binding; strength is not graded here. Sequences can lack the tags named with a protein.

Amino acid sequences for entries named in this document (tags omitted).
UniProt Q14289: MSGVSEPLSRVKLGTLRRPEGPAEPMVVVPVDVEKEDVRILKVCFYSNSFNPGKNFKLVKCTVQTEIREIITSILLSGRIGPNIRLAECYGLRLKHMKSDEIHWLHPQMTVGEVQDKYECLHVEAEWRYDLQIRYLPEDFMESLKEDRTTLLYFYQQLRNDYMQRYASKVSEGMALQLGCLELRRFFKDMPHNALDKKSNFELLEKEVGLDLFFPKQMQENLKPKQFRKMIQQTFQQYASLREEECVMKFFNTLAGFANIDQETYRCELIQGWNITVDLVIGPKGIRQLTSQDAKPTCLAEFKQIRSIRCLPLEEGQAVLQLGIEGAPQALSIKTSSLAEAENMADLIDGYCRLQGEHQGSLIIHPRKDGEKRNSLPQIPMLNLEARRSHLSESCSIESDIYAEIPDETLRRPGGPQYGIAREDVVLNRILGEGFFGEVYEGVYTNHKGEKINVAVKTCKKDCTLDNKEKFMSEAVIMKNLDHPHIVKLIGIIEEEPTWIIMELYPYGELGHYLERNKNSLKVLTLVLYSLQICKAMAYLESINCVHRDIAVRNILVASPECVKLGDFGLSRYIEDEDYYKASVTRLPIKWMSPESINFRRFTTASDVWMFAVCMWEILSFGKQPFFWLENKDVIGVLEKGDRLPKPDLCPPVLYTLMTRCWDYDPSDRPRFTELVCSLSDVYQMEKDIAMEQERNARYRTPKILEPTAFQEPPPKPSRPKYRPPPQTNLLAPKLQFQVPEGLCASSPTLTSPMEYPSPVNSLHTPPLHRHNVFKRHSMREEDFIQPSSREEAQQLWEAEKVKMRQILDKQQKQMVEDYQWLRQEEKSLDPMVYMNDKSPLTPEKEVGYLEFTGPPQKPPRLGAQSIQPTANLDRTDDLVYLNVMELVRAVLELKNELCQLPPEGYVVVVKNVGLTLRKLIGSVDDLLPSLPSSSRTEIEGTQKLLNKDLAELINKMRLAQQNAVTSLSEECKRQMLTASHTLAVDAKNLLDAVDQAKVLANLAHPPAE

Tests used:
[1] = biological target: T1, GST-LD with a mutation in the second LD motif (human) (UniProt O60711); experiment: GST pull-down from JY8-8 lysate, anti-Pyk2 immunoblot
T1 sequence: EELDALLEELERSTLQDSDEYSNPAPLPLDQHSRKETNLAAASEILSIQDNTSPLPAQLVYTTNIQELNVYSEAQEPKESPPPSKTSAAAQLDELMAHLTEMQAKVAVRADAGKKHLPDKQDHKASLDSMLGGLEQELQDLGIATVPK

[2] = biological target: T2, GST-LD fusion protein (human) (UniProt O60711); experiment: as above
T2 sequence: T1 sequence with A40D, A41E, A42T

Substance: PYK2 (from UniProt Q14289 1-1009) (enzyme)
- binding [1]: binds
- binding [2]: binds
